Source: publication PMC7954794, “Protein context shapes the specificity of SH3 domain-mediated interactions in vivo” (Nature Communications, 2021)
The amount applied is not stated for every result.

Assays:
Assay type in all cases: cell-based, Saccharomyces cerevisiae
Design in all cases: key: 0: SH3-independent; 1: SH3-dependent PPIs; 2: SH3-inhibited PPIs
BBC1 = experiment: DHFR-PCA on solid medium, bait BBC1 (Fig. 1B); details: bait BBC1, label = prey
Description: (§1) Supplement 41467_2021_21873_MOESM8_ESM.xlsx, sheet "Fig1B" | column: medsize; medrep; Ratio; Score

BOI2 = experiment: DHFR-PCA on solid medium, bait BOI2 (Fig. 1B); details: bait BOI2, label = prey
Description: as §1

BOI1 = experiment: DHFR-PCA on solid medium, bait BOI1 (Fig. 1B); details: bait BOI1, label = prey
Description: as §1

B1: YKR048C (protein, UniProt P25293 1-417, looked up)
Nucleosome assembly protein: MSDPIRTKPKSSMQIDNAPTPHNTPASVLNPSYLKNGNPVRAQAQEQDDKIGTINEEDILANQPLLLQSIQDRLGSLVGQDSGYVGGLPKNVKEKLLSLKTLQSELFEVEKEFQVEMFELENKFLQKYKPIWEQRSRIISGQEQPKPEQIAKGQEIVESLNETELLVDEEEKAQNDSEEEQVKGIPSFWLTALENLPIVCDTITDRDAEVLEYLQDIGLEYLTDGRPGFKLLFRFDSSANPFFTNDILCKTYFYQKELGYSGDFIYDHAEGCEISWKDNAHNVTVDLEMRKQRNKTTKQVRTIEKITPIESFFNFFDPPKIQNEDQDEELEEDLEERLALDYSIGEQLKDKLIPRAVDWFTGAALEFEFEEDEEEADEDEDEEEDDDHGLEDDDGESAEEQDDFAGRPEQAPECKQS
Question: Which Score (BBC1) does the source give for B1 here?
Answer: The Score was 1.

Question: And the Score (BOI2)?
Answer: The Score was 2.

B2: YIR006C (protein, UniProt P32521 1-1480, looked up)
Actin cytoskeleton-regulatory …: MYNPYQQQGMGYQQQQQQQQQQPNGFYPQQQQGQSSNQPQGQPQPQQQMAFNQPQATGIGGMPQSFGNSFSSMPQQPQTGYNNNGNNGSVYGNGNFGQQPQQQQQQAKPQHTGYVPNSSMPMMNTTGTMPPPNPAQQPQLQSIQPQGTGYYQAANTANVHSVQPLQSQGTGYYVSTPNLISSNQTQQPLQAQGTGYYQSQPQQVPPPQQAQSLQPLKPQQTGFYLQPQNQAPLEPLKPTATGFVNSFANNGLNNDIKIPAIRLSFITAQDQAKFETLFRSIVTNGSNTVSGANCRKILMRSGLPPSQLARIWTLCDTSKAGELLFPEFALAMHLINDVLQGDTIPYELDSKTKNEVSSFIDAINLSIANQDSSANDAPKTPFDEFITAGVQNLQPQPTGYMPQTSFGIPLQSQITGGGVASALNPQSTGFMAPTTFNMSMNTGTPGLNPQITGGAPASMQPNITGNALQPQTTGMMPQTTGMMPQTTGMMPQTSFGVNLGPQLTGGALQSQYTGGYGSVMPQQSGPASMPNLSFNQQGLQSQLTGLQPQPTGFLPPSNFSATMPLTAQKTGFGNNEIYTKSNFNNNLIDNSSQDKISTEEKSLFYKIFETFDTQNKGLLDSPTAVEIFRKSGLNRADLEQIWNLCDINNTGQLNKQEFALGMHLVYGKLNGKPIPNVLPSSLIPSSTKLLDNLKNQLKTEPTTTKEKPSFGKIDALSYKNNDDDVLPNYRNRRKVYSAKNEEQSSFSSPSAKSVNHSSSTLQTDDISVDKTVEKKTAKPKYAGFSREINLKNIASLENEIKNISNPENCYDSSIPSDLTSRFDAIIAKLPNLFNEISTIDNEITNAKIQLYRKKNPSSIIGSGPNGEITENDRKKAKSRALLRARMSALTGKSTESEDSLSMEDEQQSAEIKRIQQENGKNQEIIKDIRSSISDISASLKSTMTGSNMISNQEFERWEFGIGLEDGVREFLDDLKSNSNKSVTESSPFVPSSTPTPVDDRSSSPSYSQFKTAEERAAYLKEQAKKRMKEKLAKFDKNRRNVTQSSRSISSENSREQPQQIAGSSNLVEPRATPFQEEKYVEVAQPTQPVQSTQPVQPTQPVQPTQPVQPTQPVQPTQPVQPTQPVQNVYNAKQESDDEDEDDEEKRLQEELKRLKLKKKADKEKRLAALRKQIEDAQNESDEEETNGKDNFGGHVNVPQAAPVAPSAAFSQNSTNAPRSVHAAVTPAAGKNSTGLPSTTMGHNPYFKDASASSTSTFDARAAEMQRRIQRGLDEDEDDGWSDEDESNNRVAVDNKVEEAKIGHPDHARAPPVTAAPLPSVTPVPPAVPVPQANTSNEKSSPIPIAPIPPSVTQEPPVPLAPPLPAVDGFQEPPIPSAPAIATAVQKSGSSTPALAGGVLPPPPPLPTQQASTSEPIIAHVDNYNGAEKGTGAYGSDSDDDVLSIPESVGTDEEEEGAQPVSTAGIPSIPPAGIPPPPPLP
Question: Which Score (BBC1) does the source give for B2 here?
Answer: Its Score is 1.

B3: YLR337C (protein, UniProt P37370 1-817, looked up)
Verprolin: MAGAPAPPPPPPPPALGGSAPKPAKSVMQGRDALLGDIRKGMKLKKAETNDRSAPIVGGGVVSSASGSSGTVSSKGPSMSAPPIPGMGAPQLGDILAGGIPKLKHINNNASTKPSPSASAPPIPGAVPSVAAPPIPNAPLSPAPAVPSIPSSSAPPIPDIPSSAAPPIPIVPSSPAPPLPLSGASAPKVPQNRPHMPSVRPAHRSHQRKSSNISLPSVSAPPLPSASLPTHVSNPPQAPPPPPTPTIGLDSKNIKPTDNAVSPPSSEVPAGGLPFLAEINARRSERGAVEGVSSTKIQTENHKSPSQPPLPSSAPPIPTSHAPPLPPTAPPPPSLPNVTSAPKKATSAPAPPPPPLPAAMSSASTNSVKATPVPPTLAPPLPNTTSVPPNKASSMPAPPPPPPPPPGAFSTSSALSASSIPLAPLPPPPPPSVATSVPSAPPPPPTLTTNKPSASSKQSKISSSSSSSAVTPGGPLPFLAEIQKKRDDRFVVGGDTGYTTQDKQEDVIGSSKDDNVRPSPISPSINPPKQSSQNGMSFLDEIESKLHKQTSSNAFNAPPPHTDAMAPPLPPSAPPPPITSLPTPTASGDDHTNDKSETVLGMKKAKAPALPGHVPPPPVPPVLSDDSKNNVPAASLLHDVLPSSNLEKPPSPPVAAAPPLPTFSAPSLPQQSVSTSIPSPPPVAPTLSVRTETESISKNPTKSPPPPPSPSTMDTGTSNSPSKNLKQRLFSTGGSTLQHKHNTHTNQPDVDVGRYTIGGSNSIVGAKSGNERIVIDDSRFKWTNVSQMPKPRPFQNKTKLYPSGKGSSVPLDLTLFT
Question: For B3, which Score (BBC1) is on record?
Answer: The Score was 1.

B4: YAL041W (protein, UniProt P11433 1-854, looked up)
Cell division control protein …: MAIQTRFASGTSLSDLKPKPSATSISIPMQNVMNKPVTEQDSLFHICANIRKRLEVLPQLKPFLQLAYQSSEVLSERQSLLLSQKQHQELLKSNGANRDSSDLAPTLRSSSISTATSLMSMEGISYTNSNPSATPNMEDTLLTFSMGILPITMDCDPVTQLSQLFQQGAPLCILFNSVKPQFKLPVIASDDLKVCKKSIYDFILGCKKHFAFNDEELFTISDVFANSTSQLVKVLEVVETLMNSSPTIFPSKSKTQQIMNAENQHRHQPQQSSKKHNEYVKIIKEFVATERKYVHDLEILDKYRQQLLDSNLITSEELYMLFPNLGDAIDFQRRFLISLEINALVEPSKQRIGALFMHSKHFFKLYEPWSIGQNAAIEFLSSTLHKMRVDESQRFIINNKLELQSFLYKPVQRLCRYPLLVKELLAESSDDNNTKELEAALDISKNIARSINENQRRTENHQVVKKLYGRVVNWKGYRISKFGELLYFDKVFISTTNSSSEPEREFEVYLFEKIIILFSEVVTKKSASSLILKKKSSTSASISASNITDNNGSPHHSYHKRHSNSSSSNNIHLSSSSAAAIIHSSTNSSDNNSNNSSSSSLFKLSANEPKLDLRGRIMIMNLNQIIPQNNRSLNITWESIKEQGNFLLKFKNEETRDNWSSCLQQLIHDLKNEQFKARHHSSTSTTSSTAKSSSMMSPTTTMNTPNHHNSRQTHDSMASFSSSHMKRVSDVLPKRRTTSSSFESEIKSISENFKNSIPESSILFRISYNNNSNNTSSSEIFTLLVEKVWNFDDLIMAINSKISNTHNNNISPITKIKYQDEDGDFVVLGSDEDWNVAKEMLAENNEKFLNIRLY
Question: B4 was tested. Which Score (BOI1) did it give?
Answer: Its Score is 0.

Question: What about the Score (BOI2) of the same molecule?
Answer: Its Score is 0.

B5: YBL085W (protein, UniProt P38041 1-980, looked up)
BEM1-interacting protein 1: MSLEGNTLGKGAKSFPLYIAVNQYSKRMEDELNMKPGDKIKVITDDGEYNDGWYYGRNLRTKEEGLYPAVFTKRIAIEKPENLHKSPTQESGNSGVKYGNLNDSASNIGKVSSHQQENRYTSLKSTMSDIDKALEELRSGSVEQEVSKSPTRVPEVSTPQLQDEQTLIQEKTRNEENTTHDSLFSSTADLNLSSESLKNISKSNISTKSLEPSSESVRQLDLKMAKSWSPEEVTDYFSLVGFDQSTCNKFKEHQVSGKILLELELEHLKELEINSFGIRFQIFKEIRNIKSAIDSSSNKLDADYSTFAFENQAAQLMPAATVNRDEIQQQISSKCNKLSSESSDRKSSSVTTELQRPSSVVVNPNFKLHDPAEQILDMTEVPNLFADKDIFESPGRAPKPPSYPSPVQPPQSPSFNNRYTNNNARFPPQTTYPPKNKNPTVYSNGLIPNSSTSSDNSTGKFKFPAMNGHDSNSRKTTLTSATIPSINTVNTDESLPAISNISSNATSHHPNRNSVVYNNHKRTESGSSFVDLFNRISMLSPVKSSFDEEETKQPSKASRAVFDSARRKSSYGHSRDASLSEMKKHRRNSSILSFFSSKSQSNPTSPTKQTFTIDPAKMTSHSRSQSNSYSHARSQSYSHSRKHSLVTSPLKTSLSPINSKSNIALAHSETPTSSNNKEAVSQPSEGKHKHKHKHKSKHKHKNSSSKDGSSEEKSKKKLFSSTKESFVGSKEFKRSPSELTQKSTKSILPRSNAKKQQTSAFTEGIRSITAKESMQTADCSGWMSKKGTGAMGTWKQRFFTLHGTRLSYFTNTNDEKERGLIDITAHRVLPASDDDRLISLYAASLGKGKYCFKLVPPQPGSKKGLTFTEPRVHYFAVENKSEMKAWLSAIIKATIDIDTSVPVISSYATPTIPLSKAQTLLEEARLQTQLRDAEEEEGRDQFGWDDTQNKRNSNYPIEQDQFETSDYLESSAFEYPGGRL
Question: What does the source list for B5?
Answer: Score (BOI1): 0; Score (BOI2): 0

B6: YER114C (protein)
chain: PMYIAINEYFKRMEDELDMKPGDKIKVITDDEEYKDGWYFGRNLRTNEEGLYPVVFTQKIT
Question: B6 was tested. Which Score (BOI2) did it give?
Answer: The Score was 0.

B7: YDR166C (protein, UniProt P89102 1-971, looked up)
Exocyst complex component SEC5: MDRFQIGDEQLLRFYQLKTINPTHSWAQDSSKLNNEEATSNELGVETSFDILKDFKYGNQISIDKESRAYLNDESLSYIRDPLNGQEMSKELQHLPNDSMRLNYLVNSKQFNVKAFLRDMHKQDSFNDLNNSLDRLDSDIQDQSIHLKQLVGKNFTKYVKIKNKLDQIYKEFDEKTNEKNQCDSPKENQINVESLNKKVDEVIRTTTFKLKPLMDNYQKILNYQATKKFIELNKFYFNLPKSLKRCLTNNDFNEFIIEYSKGLTLRRRFNQSSDASQSLVIKRIWTQIENLLVTYKDLIWNSLINSNFNIDQPQETILSLFSKLLNLENFINNNQRESESGNKNTTSSSNENPILRWMSIKMNGFQNELNELSGHMISKIIHSQRLILQNNTNQDKSQGCVELSYYLKINQLFQIISDTGKDSEGLKSTVEPNKVNTISGTSYLNLNCQPSSQGLTDSPTIIEMWLLILKYINDLWKICDQFIEFWEHIEKFLDGTYQNSIINEKRKENILIGDSNIIESYQKSLILKEEQINEVRLKGEEFITSVSQNLISFFTSSQSSLPSSLKDSTGDITRSNKDSGSPLDYGFIPPNCNGLSCLRYLPKIVEPILKFSTELAQLNITTNGITICRNTLSTIINRCVGAISSTKLRDISNFYQLENWQVYETVTFSSKSQDSSKNLTFEYGVTQFPEIVTSFQEVSIKTTRDLLFAYEKLPIINGISVVSYPSKQLLTGIEIQQIISMEAVLEAILKNAAKDKDNPRNSHTILTLTNLQYFRECAFPNILQYFDDAFEWNLASKNLELFSLLSKMESSIFGNYLSDLKINLRDTLEEKFHEINWPMYTSNSFRVGDYIIEALMILIVVHSECFRIGPQLIHKILIETQIFIARYLFEAFKPYVGNLSNDGSLQIIVDLEFFQKVMGPLLEKDTEATLRACLQNCFQNDTNRLQKCINEINPIVSANLKRTAIQFAAFS
Question: How did the Score (BOI2) turn out when B7 was run?
Answer: Its Score is 1.
